Data: US11230542B2, “Inhibitors of integrated stress response pathway” (Praxis Biotech LLC, priority 2017, dated 2022)
Some entries share one result that the patent states for a list of compounds.

Tests used:
HeLa cell lysates = test: Protein synthesis with a cell-free system (GFP expression, HeLa cell lysates); assay type: biochemical, Human; conditions: 1 μM test compound, 6-hour treatment
ATF4 = ATF4 expression inhibition assay (thapsigargin-stressed HEK293T cells, western blot); assay type: cell-based; conditions: summary of Table 2, ISR-inducing conditions
Experimental: HEK293T cells were maintained at 37° C. and 5% CO2 in Dulbecco's Modified Eagle's Media (DMEM) supplemented with 10% fetal bovine serum (FBS), 2 mM L-glutamine, 100 U/ml penicillin, and 100 μg/ml streptomycin. […] Cells without treatment or cells treated with Tg alone were used as controls.
After 3 hours of treatment with Tg and the test compound, cells were lysed with SDS-PAGE lysis buffer. Lysates were transferred to 1.5 ml tubes and sonicated for 3 min, and total protein amounts were quantified using BCA Protein Assay Kit (Pierce). Equal amount of proteins were loaded on SDS-PAGE gels. Proteins were transferred onto 0.2 μm PVDF membranes (BioRad) and probed with primary antibodies diluted in Tris-buffered saline supplemented with 0.1% Tween 20 and 3% bovine serum albumin.
ATF4 (11815) antibody was used as primary antibody (Cell Signaling Technologies). A horseradish peroxidase (HRP)-conjugated secondary antibody (Rockland) was employed to detect immune-reactive bands using enhanced chemiluminescence (ECL Western Blotting Substrate, Pierce). Quantification of protein bands was done by densitometry using ImageJ.
Percentages of ATF4 inhibition after induction with Tg in the presence of 100 nM or 1 μM of certain test compounds are shown in Table 2 and FIG. 1. Percentage of ATF4 inhibition was calculated as the percent reduction normalized to Tg treatment (0% inhibition) and untreated cells (100% inhibition). Also shown in Table 2 is the calculated IC50 for the test compounds. […] Accordingly, inhibition of ATF4 expression as a result of the test compound indicates suppression of the ISR pathway.

Structure (SMILES)	increase of GFP expression / fluorescence compared to kit's reagents alone (HeLa cell lysates)	ATF4 inhibition (ATF4)
O=C(NC1CCN(C[C@H](O)COc2ccc(Cl)c(F)c2)CC1)c1ccc2cc(Cl)ccc2n1 (single isomer, unassigned) [Compound 152, (+)-6-chloro-N-(1-(3-(4-chloro-3-fluorophenoxy)-2-hydroxypropyl)piperidin-4-yl)quinoline-2-carboxamide]	up to 4 fold	
O=C(NC1CCN(C[C@@H](O)COc2ccc(Cl)c(F)c2)CC1)c1ccc2cc(Cl)ccc2n1 (single isomer, unassigned) [Compound 153, (−)-6-chloro-N-(1-(3-(4-chloro-3-fluorophenoxy)-2-hydroxypropyl)piperidin-4-yl)quinoline-2-carboxamide]	up to 4 fold	less than 50%
O=C(N[C@H]1CC[C@H](NCC(O)COc2ccc(Cl)c(F)c2)CC1)c1ccc2cc(Cl)ccc2n1 (stereo partly drawn) [Compound 30, trans-6-chloro-N-(4-((3-(4-chloro-3-fluorophenoxy)-2-hydroxypropyl)amino)cyclohexyl)quinoline-2-carboxamide]		less than 50%
O=C(NC1CCN(C[C@@H](O)COc2ccc(Cl)c(F)c2)CC1)c1cc2cc(Cl)ccc2o1 (single isomer, unassigned) [Compound 150, (−)-5-chloro-N-(1-(3-(4-chloro-3-fluorophenoxy)-2-hydroxypropyl)piperidin-4-yl)benzofuran-2-carboxamide]		less than 50%
